These are yes or no findings as the source states them, for the method shown. Binding seen in cells or lysates may run through a third protein. A result given as binding can be weak or reduced; the word gives no strength.
Molecular target: T1, mouse adiponectin (mouse (endogenous in mouse colon)) (UniProt Q60994)
T1 sequence: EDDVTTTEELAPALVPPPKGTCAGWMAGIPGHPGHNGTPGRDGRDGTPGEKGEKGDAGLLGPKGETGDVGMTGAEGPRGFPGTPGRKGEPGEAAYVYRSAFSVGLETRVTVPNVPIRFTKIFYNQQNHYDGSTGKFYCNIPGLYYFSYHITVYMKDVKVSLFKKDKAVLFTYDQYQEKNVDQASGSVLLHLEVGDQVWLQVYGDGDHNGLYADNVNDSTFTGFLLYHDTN
Assay: co-IP; IP with anti-ADN antibody (ab22554), immunoblot with anti-flag antibody (F1804) and anti-ADN antibody; colon of WT and pAdipoR1 mice

The chains behind the UniProt entries cited, without tags or fusion partners. Where a name states a change or a piece, a line headed by the entry shows the natural chain unless it says otherwise.
UniProt Q5V9L5: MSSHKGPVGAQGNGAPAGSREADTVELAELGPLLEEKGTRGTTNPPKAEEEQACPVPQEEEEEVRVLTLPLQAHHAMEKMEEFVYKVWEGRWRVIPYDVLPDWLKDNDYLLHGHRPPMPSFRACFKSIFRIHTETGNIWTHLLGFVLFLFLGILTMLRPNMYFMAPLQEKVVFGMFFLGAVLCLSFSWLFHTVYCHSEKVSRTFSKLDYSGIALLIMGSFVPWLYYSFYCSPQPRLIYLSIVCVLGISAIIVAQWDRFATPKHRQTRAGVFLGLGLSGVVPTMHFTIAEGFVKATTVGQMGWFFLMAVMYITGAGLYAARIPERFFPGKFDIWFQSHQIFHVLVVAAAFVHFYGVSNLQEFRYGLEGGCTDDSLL

binding: binds
Substance: porcine adiponectin receptor 1 conjugated with flag (from UniProt Q5V9L5)

From publication PMC5851065
